Reference: PubChem BioAssay AID540256 (National Center for Advancing Translational Sciences (NCATS), 2011)
About 3,700 (1.2%) of roughly 300,000 compounds were called active. The inconclusive results got no clear call from the source; some entries with a clear call stand among them for comparison. Calls follow the shape of the full dose curve; tested in HEK293 cells. Potencies beside an inconclusive call are fits to weak or partial responses and may not hold up.

Assay: qHTS for Inhibitors of binding or entry into cells for Lassa Virus; also: nearly all actives have a fitted effect of over 50% in size
Settings: Lassa virus pseudotype entry inhibition, cell reporter; activity change, negative = inhibition: at 37.9 µM (top of the series) unless noted
% is scaled to controls: 0 for no effect and ±100 for the full control effect; potency is read from the fitted curve at half-maximal effect.

SMILES	activity change, negative = inhibition	Potency
CN(C)c1ccc(/C=C(\C#N)c2nc(-c3ccc(Cl)c(Cl)c3)cs2)cc1	inactive: 0.598% [at 46.1 µM]	
O=C(CN1CCCCC1)N1c2ccccc2Oc2ccccc21	inactive: 8.37%	
Cc1c(S(=O)(=O)NC2CCCCCC2)c(=O)n(C)c(=O)n1C	inactive: -2.85%	
CN1CCN(c2ccc(S(=O)(=O)N3CCCCC3)cc2NC(=O)COc2cccc(Cl)c2)CC1		inconclusive: 12.6 µM [inhibitor, partial curve, poor fit]
Cc1ccc(NC(=O)N2CCC(C(N)=O)CC2)cc1		inconclusive: 5.17 µM [activator, full curve, poor fit]
OCCC1CN(Cc2cnc(-c3ccccc3)s2)CCN1Cc1ccccc1 (centres undefined)		inconclusive: 22.4 µM [inhibitor, single point]
Cn1c(=N)n(CC(O)c2cccc3ccccc23)c2ccccc21 (centres undefined)		inconclusive: 2.82 µM [activator, single point]
O=C1NC(=O)C2(Cc3ccccc3N3CCCC32)C(=O)N1c1cccc(Cl)c1 (centres undefined)	inactive: -2.81%	
CC(=O)NC(c1ccccc1)c1cc(Cl)c2cccnc2c1O (centres undefined)		inconclusive: 1.78 µM [inhibitor, full curve, poor fit]
O=C(Nc1ccccc1Cl)O/N=C(/c1ccccc1)c1ccccn1	inactive: -5.93%	
Cc1cc(C)c2nc(N(Cc3cccnc3)C(=O)c3cccs3)sc2c1		inconclusive: 10 µM [activator, partial curve, poor fit]
Nn1c(COc2ccccc2F)nnc1SCC(=O)NC1CCS(=O)(=O)C1 (centres undefined)		inconclusive: 3.55 µM [inhibitor, partial curve, poor fit]
CCc1nc(-n2[nH]c(=O)c3ccccc3c2=O)c2c3c(sc2n1)CCCC3	inactive: 16.4%	
Cc1cc2c(C)nc(-c3ccccc3)nc2o1	inactive: 29.2%	
CCCCCOc1ccc(C(=O)NC(C(=O)O)C(C)C)cc1 (centres undefined)		inconclusive: 0.082 µM [inhibitor, full curve, poor fit]
COc1ccc(CN(CC(=O)NCc2ccc(F)cc2)C(=O)CCC(=O)Nc2cc(C)ccn2)cc1		inconclusive: 3.98 µM [inhibitor, full curve, poor fit]
Cc1ccc2oc(=O)c3cc(C(=O)Nc4cc(-c5cccc(F)c5)no4)sc3c2c1	inactive: 0.118%	
COc1ccc(NC(=O)CN2C(=O)COc3ccc(C)cc32)c(OC)c1		inconclusive: 20 µM [inhibitor, single point]
COc1ccccc1CO/N=C/NC(=O)c1c(OC)ccnc1Oc1ccc(F)cc1	inactive: 3.14%	
CCCN(CC(=O)Nc1ccccc1C)C(=O)C1CCN(c2ncnc3sc(C)c(C)c23)CC1		inconclusive: 2.24 µM [inhibitor, partial curve]
Cc1cc([N+](=O)[O-])nn1CC(=O)Nc1cccc2nonc12		inconclusive: 1.12 µM [activator, full curve, poor fit]
CCOc1ccc2nc(N(CCN(C)C)C(=O)c3ccc4c(c3)CCCC4)sc2c1		inconclusive: 11.2 µM [inhibitor, partial curve]

SMILES	activity change, negative = inhibition	Potency
O=C(Cc1c(F)cccc1Cl)N/N=C/c1cccs1	inactive: 4.5% [at 46.1 µM]	
O=C(NCCc1nc2ccccc2n1Cc1ccc(Cl)cc1Cl)c1ccco1		inconclusive: 35.5 µM [inhibitor, partial curve, poor fit]
CSc1ccc(-c2cc3c(c4c2ccn4C)C2CCC3O2)cc1 (centres undefined)		inconclusive: 3.96 µM [inhibitor, full curve, poor fit]
CCn1ccc2c(OCC(=O)NCc3ccc(F)cc3)cccc2c1=O		inconclusive: 15.8 µM [inhibitor, partial curve, poor fit]
CCOC(=O)c1c(NC(=O)c2ccc(Br)o2)sc(C)c1CC		inconclusive: 14.1 µM [inhibitor, partial curve, poor fit]
CCc1ccc(CN2CCCC(CNC(=O)c3cccc(OC)c3OC)C2)cc1 (centres undefined)	inactive: 0.0329% [at 46.1 µM]	
Cc1ccc(Cn2c(CN3CCC(C(=O)NCCc4ccccc4)CC3)cc3ccccc32)cc1		inconclusive: 35.5 µM [inhibitor, single point]
CCN1CCN(c2oc(-c3ccccc3)nc2S(=O)(=O)c2ccc(C)cc2)CC1		inconclusive: 1.26 µM [inhibitor, full curve, poor fit]
N#Cc1ccc(C(=O)Nc2ccc3c(c2)N(C2CCCC2)C(=O)c2ccccc2S3)cc1		inconclusive: 5.62 µM [inhibitor, partial curve, poor fit]
COc1ccc(CN(C)C(=O)c2ccc3ccccc3n2)cc1F		inconclusive: 35.5 µM [inhibitor, partial curve, poor fit]
CS(=O)(=O)c1ccccc1C(=O)Nc1ccccc1Cc1ccccc1		inconclusive: 0.562 µM [inhibitor, full curve, poor fit]
CCc1c(C)sc(NC(=S)Nc2cccnc2)c1C(=O)OC		inconclusive: 35.5 µM [inhibitor, single point]
COc1ccccc1NC(=O)CC1Sc2ccc(C(F)(F)F)cc2NC1=O (centres undefined)	inactive: -5.27% [at 46.1 µM]	
Cc1cc(C(=O)Cn2nnc3ccccc3c2=O)c(C)n1-c1c(C)n(C)n(-c2ccccc2)c1=O	inactive: -10.5%	
Nc1ccc(-c2ccc(N)c([N+](=O)[O-])c2)cc1[N+](=O)[O-]	inactive: 2.38%	
COc1ccc(N(CC(=O)N/N=C/c2ccccc2F)S(=O)(=O)c2ccccc2)cc1		inconclusive: 5.01 µM [inhibitor, partial curve]
COc1cc(C)nc(NC(=O)COc2ccc(Cl)cc2C)n1	inactive: -25.6%	
CC(C)CCOc1cccc(OCC(=O)Nc2ccncc2)c1	inactive: -12.1% [at 46.1 µM]	
O=C(Nc1cccc(-n2cccn2)c1)C1CCCN(Cc2cc3ccccc3[nH]2)C1 (centres undefined)		inconclusive: 35.5 µM [inhibitor, single point]
COc1ccc(NC(=O)Nc2cccc3ccccc23)cc1S(N)(=O)=O		active: 3.98 µM
COC(=O)C1CCN(C(=O)/C=C/c2ccc3c(c2)OCO3)CC1		inconclusive: 0.112 µM [inhibitor, full curve, poor fit]
FC(F)(F)c1cccc(/C=N/NC(=S)NC2CCCCC2)c1		inconclusive: 7.94 µM [inhibitor, partial curve]

Look-ups from the results shown:
In activity change, negative = inhibition, CN(C)c1ccc(/C=C(\C#N)c2nc(-c3ccc(Cl)c(Cl)c3)cs2)cc1 reads inactive: 0.598% [at 46.1 µM]
In Potency, CN1CCN(c2ccc(S(=O)(=O)N3CCCCC3)cc2NC(=O)COc2cccc(Cl)c2)CC1 reads inconclusive: 12.6 µM [inhibitor, partial curve, poor fit]
